This is an account of results in ChEMBL document CHEMBL4811258, “Potent Antimalarials with Development Potential Identified by Structure-Guided Computational Optimization of a Pyrrole-Based Dihydroorotate Dehydrogenase Inhibitor Series” (J Med Chem, 2021).

One data set relates to Plasmodium falciparum. Conditions: 3D70087/N9, time 4.0 day.
For data set [1] the following is noted: rat, plasma.
For data set [2] the following is noted: Sprague-Dawley, rat, in vivo, po, 10 mg/kg, 24 h.
For data set [3] the following is noted: human, plasma.
The conditions of data set [4]: mouse, plasma.

Molecules are shown by their SMILES. Where only a bound is given, the exact number is not on record here.

For the molecule `Cc1c(C2(c3ccc(C(F)(F)F)c(C#N)c3)CC2)c[nH]c1C(=O)NC(C)c1nc[nH]n1` (stereo in doubt; form 1) [listing 1 of 2 here], the AUCED90 in the data set on Plasmodium falciparum is less than 16 µM·h.
`Cc1c(C2(c3ccc(C(F)(F)F)c(C#N)c3)CC2)c[nH]c1C(=O)NC(C)c1nc[nH]n1` (stereo in doubt; form 1) [listing 2 of 2 here]: the PPB worked out at 98.2% in data set [1], 98.5% in data set [3] and 97.9% in data set [4]. The molecule also gave a F in data set [2] of 73%.
